In PubChem BioAssay AID588590 (National Center for Advancing Translational Sciences (NCATS), 2011):
The whole screen tested about 390,000 compounds, of which about 4,000 (1%) were called active. Inconclusive means that the source gave no clear call. Such entries were picked first, then a sample of the others. Calls come from the whole dose curve; as a rule, active = well fitted inhibition curve with a large enough effect; inconclusive = small, poorly fitted or top-dose-only effect, or another doubt; inactive = no such curve, though single readings can be large or run the other way. A potency beside an inconclusive call is a rough fit, not a confirmed value.

Amino acid sequences for entries named in this document (tags omitted). A change or cut given only in a name is not applied to a line headed by its entry.
UniProt Q9UNA4: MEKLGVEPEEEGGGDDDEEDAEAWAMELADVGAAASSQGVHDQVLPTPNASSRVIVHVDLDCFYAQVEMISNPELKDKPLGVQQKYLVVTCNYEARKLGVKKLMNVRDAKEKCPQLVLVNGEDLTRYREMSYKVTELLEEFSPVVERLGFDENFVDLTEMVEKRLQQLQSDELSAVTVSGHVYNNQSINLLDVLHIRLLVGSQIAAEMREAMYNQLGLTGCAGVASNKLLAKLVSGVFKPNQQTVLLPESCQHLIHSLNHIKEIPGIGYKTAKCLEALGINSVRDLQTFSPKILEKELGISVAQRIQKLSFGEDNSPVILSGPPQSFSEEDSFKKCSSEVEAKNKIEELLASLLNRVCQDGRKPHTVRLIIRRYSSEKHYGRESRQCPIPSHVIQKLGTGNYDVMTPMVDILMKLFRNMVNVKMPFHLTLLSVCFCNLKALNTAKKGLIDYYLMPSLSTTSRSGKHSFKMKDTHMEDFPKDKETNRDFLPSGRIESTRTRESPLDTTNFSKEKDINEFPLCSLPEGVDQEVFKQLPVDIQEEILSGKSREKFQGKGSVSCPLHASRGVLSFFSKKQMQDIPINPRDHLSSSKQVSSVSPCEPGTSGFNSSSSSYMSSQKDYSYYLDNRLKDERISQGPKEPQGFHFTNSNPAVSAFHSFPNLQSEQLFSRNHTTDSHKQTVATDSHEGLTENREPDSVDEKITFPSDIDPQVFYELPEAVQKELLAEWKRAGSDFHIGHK

These compounds were tested against DNA polymerase iota (Homo sapiens) (UniProt Q9UNA4) (assay: qHTS for Inhibitors of Polymerase Iota). Conditions: Pol iota fluorescent replication assay, 10 min; series mostly up to 115 µM; activity, negative = inhibition: at the top concentration.
Procedure, shortened: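 Fluorescent replication assay read twice, at 0 min and 10 min after adding 50 nM (final) substrate. Enzyme (10 nM) and compounds were first incubated 15 min at room temperature; enzyme-free buffer wells were negative controls.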
Potency is the fitted concentration of half-maximal effect.

Compound	Potency	activity, negative = inhibition
COc1cccc(/C=C(\C#N)C(=O)NC2CCS(=O)(=O)C2)c1 (stereo not drawn)	inconclusive: 79.4 µM [inhibitor, partial curve]	
CC(C)N1C(=O)/C(=C\c2nc3ccccc3c(=O)[nH]2)c2ccccc21	inconclusive: 15.8 µM [inhibitor, full curve, poor fit]	
COc1cn(-c2ccccc2)nc1C(=O)Nc1ccc(C)cc1	inconclusive: 89.1 µM [inhibitor, partial curve, poor fit]	
CCn1c(CNC(=O)COc2ccc(C(C)C)cc2)nnc1SCC(=O)Nc1ccccc1	inconclusive: 22.4 µM [inhibitor, partial curve, poor fit]	
CCOC(=O)Cc1csc(SCC(=O)Nc2oc(C)c3c(C)n[nH]c(=O)c23)n1		inactive: 44.2%
Fc1cccc(/C=N/Nc2ccc(Cl)nn2)c1		inactive: 18.2%
Cc1nn(C(=O)c2cccc([N+](=O)[O-])c2)c(C)c1Sc1ccccc1	inconclusive: 3.98 µM [inhibitor, single point]	
COc1ccc(C(=O)CCC(=O)N2CCN(c3cc(C)ccc3C)CC2)cc1		inactive: 28.5%
Cc1occc1C(=O)N/N=C/C1=C(N2CCOCC2)C(=C\c2ccc(Cl)cc2)/CC1	inconclusive: 35.5 µM [inhibitor, single point]	
Cc1ccc(C(=O)N2CCN(C3CCCCC3)CC2)s1	inconclusive: 89.1 µM [inhibitor, partial curve, poor fit]	
N#Cc1ccc(OS(=O)(=O)c2ccc(-c3ccon3)s2)cc1	inconclusive: 89.1 µM [inhibitor, partial curve]	
S=c1[nH]nc(-c2cc(-c3ccccc3)n[nH]2)n1/N=C/c1c2ccccc2cc2ccccc12	active: 20 µM	
C=CCN=C(C)C1=C(O)C(C)OC1=O (stereo not drawn)		inactive: -10.6%
COC(=O)C1=C(C)N(c2cc(C)cc(C)c2)/C(=C/c2ccco2)C1=O	inconclusive: 2.51 µM [inhibitor, single point]	
N#Cc1nc(-c2ccc(Cl)cc2)oc1NCC1CCCO1 (stereo not drawn)	inconclusive: 89.1 µM [inhibitor, partial curve, poor fit]	
CS(=O)(=O)Nc1ccc(C2=NN(C(=O)C3CCCCC3)C(c3cccs3)C2)cc1 (stereo not drawn)		inactive: 13.7%
COc1cc(NS(C)(=O)=O)ccc1Nc1c2ccccc2nc2ccccc12	inconclusive: 31.6 µM [inhibitor, partial curve]	
O=C1c2c(O)cc(O)cc2O[C@@]12c1c(cc(O)c3c1O[C@H](c1ccc(O)cc1)[C@@H](O)C3)O[C@@H]2c1ccc(O)cc1	inconclusive: 22.4 µM [inhibitor, single point]	
COc1ccc(N(C(=O)c2snc(C(N)=O)c2N)C(C(=O)NCc2ccccc2)c2ccc(F)cc2)c(OC)c1 (stereo not drawn)	inconclusive: 56.2 µM [inhibitor, partial curve]	
COc1ccc(N(C2=NCCCS2)S(=O)(=O)c2ccc(C(C)(C)C)cc2)cc1	inconclusive: 50.1 µM [inhibitor, partial curve, poor fit]	
CC1CN(C(=O)CCC(=O)NC2CCN(Cc3ccccc3)CC2)c2ccccc2O1 (stereo not drawn)	inconclusive: 79.4 µM [inhibitor, single point]	

Compound	Potency	activity, negative = inhibition
CCC(=O)N1c2ccccc2NC2=C(C(=O)CC(c3ccco3)C2)C1c1ccco1 (stereo not drawn)	inconclusive: 112 µM [inhibitor, single point]	
O=C(O)c1ccc(S(=O)(=O)/N=C2\C=C(Nc3ccccc3F)C(=O)c3ccccc32)cc1	active: 1.12 µM	
O=C(c1cccc(-n2cccc2)c1)N1CCN(S(=O)(=O)c2ccccc2)CC1	active: 8.91 µM	
N#CC(C#N)=C1C=CC=CN1/C(=C\c1ccco1)C(=O)c1ccc(-c2ccccc2)cc1	inconclusive: 15.8 µM [inhibitor, full curve, poor fit]	
COc1ccc(-n2cnc3cc(C(=O)N4CCOCC4)ccc32)cc1	inconclusive: 89.1 µM [inhibitor, single point]	
COc1cc(C(=O)N2CCN(S(=O)(=O)c3cccs3)CC2)cc(OC)c1C	inconclusive: 25.1 µM [inhibitor, partial curve]	
O=C(c1ccco1)N1CCN(C(c2ccc(F)cc2)c2nnnn2Cc2cccs2)CC1 (stereo not drawn)	inconclusive: 22.4 µM [inhibitor, partial curve, poor fit]	
Cc1ccc(NC(=S)NCc2ccco2)c(C)c1	inconclusive: 89.1 µM [inhibitor, single point]	
NC(=O)c1ccccc1NC(=O)c1ccc(-c2ccc(Br)cc2)o1	inconclusive: 89.1 µM [inhibitor, single point]	
Cc1oc2cc([N+](=O)[O-])c(O)c([N+](=O)[O-])c2c1C(=O)c1ccc(Cl)cc1	inconclusive: 28.2 µM [inhibitor, partial curve]	
CCc1ccc(-n2cnc3cc(C(=O)NCc4ccc(C)cc4)ccc32)cc1	inconclusive: 100 µM [inhibitor, single point]	
O=C1NC(Nc2nc3ccccc3s2)(C(F)(F)F)C(=O)N1C1CCCCC1 (stereo not drawn)	inconclusive: 14.1 µM [inhibitor, full curve, poor fit]	
O=C(Nc1ccc(F)cc1Cl)C1CCN(C(=O)Nc2ccccc2)CC1		inactive: 29.8%
O=C(CCN1C(=O)C2CC=CCC2C1=O)Nc1nc(-c2ccc(F)c(F)c2)cs1 (stereo not drawn)	inconclusive: 39.8 µM [inhibitor, full curve, poor fit]	
COC(=O)c1ccc(NC(=O)COC(=O)COc2cccc3c2OC(C)(C)C3)cc1		inactive: 3.29%
Cc1ccn2cc(-c3ccc(NS(=O)(=O)c4ccccc4)cc3)nc2c1	inconclusive: 50.1 µM [inhibitor, partial curve, poor fit]	
C=CCOc1c(Br)cc(/C=N/Nc2ccc(C(=O)O)cc2)cc1OCC	inconclusive: 89.1 µM [inhibitor, partial curve, poor fit]	
c1ccc(C(c2nnnn2C2CCCCC2)N2CCc3ccccc3C2)nc1 (stereo not drawn)		inactive: 8.69%
Oc1ccc2ccccc2c1-c1sc(Nc2ccccc2)n[n+]1-c1ccc(F)cc1		inactive: 22.3%
Cc1ccc(C)c(SCc2noc(C(=O)NC(C)C)c2C(=O)O)c1	inconclusive: 1.41 µM [inhibitor, full curve, poor fit]	
NC(=O)COc1ccccc1C1=NO[C@@](CC(=O)O)(C(=O)Nc2ccc3c(c2)OCCO3)C1	inconclusive: 10 µM [inhibitor, partial curve, poor fit]	

Compound	Potency	activity, negative = inhibition
CC1CCCCN1CC(=O)Nc1sccc1C#N (stereo not drawn)	inconclusive: 28.2 µM [inhibitor, full curve, poor fit]	
O=C(c1cccnc1)N1CCN(S(=O)(=O)c2ccc(S(=O)(=O)N3CCCC3)cc2)CC1	inconclusive: 79.4 µM [inhibitor, single point]	
CCOC(=O)N1CCN(C(=O)c2ccc3c(c2)sc2nc(-c4ccccc4)cn23)CC1	inconclusive: 100 µM [inhibitor, partial curve, poor fit]	
C[N+](C)(C)c1ccc(/C=C2\C=Cc3ccccc32)cc1		inactive: 10.4%
CCCN1C(=O)CN(C2CCCCCC2)C(=O)C1c1ccc(C)cc1 (stereo not drawn)	inconclusive: 79.4 µM [inhibitor, partial curve, poor fit]	
CC(C)(C)CC(C)(C)N=C1Nc2cc(Cl)c(Cl)cc2N[C@]12C[C@H]1CCCC(=O)N3CC[C@@H](C2)[C@@H]13	inconclusive: 14.1 µM [inhibitor, partial curve, poor fit]	
CCOc1ccc(C(=O)CCN2CCCCCC2)cc1	inconclusive: 35.5 µM [inhibitor, single point]	
Cc1nc2cc(-c3ccsc3-n3c(C)ccc3C)[nH]n2c(=O)c1Cl	inconclusive: 10 µM [inhibitor, full curve, poor fit]	
CSc1nc(N2CCOCC2)c2c3c(sc2n1)CCC3	inconclusive: 28.2 µM [inhibitor, single point]	
Fc1cccc(-n2ncc3c2ncn2nc(COc4ccc(Cl)cc4)nc32)c1		inactive: 0.756%
COc1ccc(-c2cc3nc(C)c(CCC(=O)Nc4ccccc4C(C)=O)c(C)n3n2)c(OC)c1		inactive: 27.3%
O=C(CSc1nnc(-c2cccnc2)n1Cc1ccco1)c1ccc(Cl)cc1	inconclusive: 44.7 µM [inhibitor, partial curve, poor fit]	
CCOC(=O)N/N=C(C)/C=C/c1ccccc1	inconclusive: 89.1 µM [inhibitor, single point]	
O=c1sc2ccccc2c(=O)n1Cc1ccccc1F		inactive: 23.1%
CCN(CC(=O)Nc1ccc(NC(C)=O)cc1)C(=O)c1cc2c(s1)CCCC2	inconclusive: 63.1 µM [inhibitor, single point]	
Cc1nc2scc(C)n2c(=O)c1S(=O)(=O)Nc1ccc(N2CCOCC2)c(Cl)c1	inconclusive: 100 µM [inhibitor, single point]	
CCOc1ccc(NC(=O)C(Cc2ccccc2)N2C(=O)c3cccc4cccc(c34)C2=O)cc1 (stereo not drawn)	inconclusive: 3.16 µM [inhibitor, full curve, poor fit]	
CCc1nnc(SC(CC)C(=O)Nc2cccc(OC)c2)c2cc3oc(C)cc3n12 (stereo not drawn)		inactive: 4.48%
Cc1ccc(Sc2c(C)nn(C(C)(C)C)c2OC(=O)C(C)(C)C)cc1	inconclusive: 100 µM [inhibitor, partial curve, poor fit]	
Cc1ccc2nc(/C(C#N)=C\c3ccc(N4CCCCC4)c([N+](=O)[O-])c3)[nH]c2c1	inconclusive: 79.4 µM [inhibitor, partial curve, poor fit]	
Nc1ccc2c(c1)-c1ccccc1S(=O)(=O)N2	active: 14.1 µM	

Random excerpt: 2 entries already listed, in no set order.
Compound	Potency	activity, negative = inhibition
CS(=O)(=O)Nc1ccc(C2=NN(C(=O)C3CCCCC3)C(c3cccs3)C2)cc1 (stereo not drawn)		inactive: 13.7%
COc1cc(NS(C)(=O)=O)ccc1Nc1c2ccccc2nc2ccccc12	inconclusive: 31.6 µM [inhibitor, partial curve]	
